Measurements published in article PMC10517016, “SCARB2 drives hepatocellular carcinoma tumor initiating cells via enhanced MYC transcriptional activity” (Nature Communications, 2023).

Protein sequences, listed by entry. Tags and fused reporters are not part of them. Lines headed by an entry give the natural chain unless they say otherwise; changes in a name come on top.
UniProt Q14108: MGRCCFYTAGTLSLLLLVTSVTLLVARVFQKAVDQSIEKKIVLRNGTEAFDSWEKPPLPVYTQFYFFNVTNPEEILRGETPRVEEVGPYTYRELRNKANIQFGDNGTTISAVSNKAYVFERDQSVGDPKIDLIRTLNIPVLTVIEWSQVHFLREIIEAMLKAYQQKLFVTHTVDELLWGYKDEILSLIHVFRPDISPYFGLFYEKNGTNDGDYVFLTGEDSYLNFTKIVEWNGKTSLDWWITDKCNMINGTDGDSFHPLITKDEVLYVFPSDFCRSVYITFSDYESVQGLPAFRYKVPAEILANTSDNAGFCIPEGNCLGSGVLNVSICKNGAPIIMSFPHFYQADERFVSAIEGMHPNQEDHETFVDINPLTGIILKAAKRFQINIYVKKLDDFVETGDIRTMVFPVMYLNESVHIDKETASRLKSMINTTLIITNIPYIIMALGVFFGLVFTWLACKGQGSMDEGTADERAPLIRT
UniProt P01106: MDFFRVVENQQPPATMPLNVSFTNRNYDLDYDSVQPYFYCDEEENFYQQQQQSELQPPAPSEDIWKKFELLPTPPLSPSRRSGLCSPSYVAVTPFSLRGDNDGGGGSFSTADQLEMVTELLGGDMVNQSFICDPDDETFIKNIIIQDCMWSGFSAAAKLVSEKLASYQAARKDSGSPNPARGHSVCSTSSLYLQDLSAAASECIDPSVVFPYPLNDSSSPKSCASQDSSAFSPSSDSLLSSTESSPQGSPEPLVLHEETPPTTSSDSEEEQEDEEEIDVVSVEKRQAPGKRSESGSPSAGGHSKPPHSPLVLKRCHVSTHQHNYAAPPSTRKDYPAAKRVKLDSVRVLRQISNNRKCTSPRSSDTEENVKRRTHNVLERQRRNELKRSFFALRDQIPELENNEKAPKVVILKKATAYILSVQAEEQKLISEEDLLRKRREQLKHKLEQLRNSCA

What was measured:
[1] = target: Purified His-tagged SCARB2 (UniProt Q14108); test: SPR; BIAcore T200; SCARB2 protein immobilised on a CM5 chip; SCARB2-MYC interaction with or without PMB; both purified
[2] = target: Purified His-tagged SCARB2 (UniProt Q14108); test: co-IP; in vitro: 5 ug of each purified protein mixed in 100 ul of 1% NP-40, 120 mM NaCl, 40 mM tris-HCl pH 7.4, 1.5 mM sodium orthovanadate, 50 mM sodium fluoride, 10 mM sodium pyrophosphate, protease inhibitors, 6 h at 4 °C, then immunoprecipitation; both purified

binding [1]: binds | binding [2]: binds
Substance: Purified His-tagged MYC (from UniProt P01106 1-454)

These are yes or no findings as the source states them, for the method shown. Binding can be weak; no strength is given. For some assays here: Binding seen in cells or lysates may run through a third protein.
